Test results published in publication doi:10.1101/692004.
These are yes or no findings as the source states them, for the method shown. In cells and extracts the contact can be indirect. Some binding calls cover weakened binding; strength is not graded here. Tags and fused reporters may be left off the sequences shown.

Sequences of proteins named here, by UniProt entry; tags and fusion partners are left off.
UniProt Q6R327: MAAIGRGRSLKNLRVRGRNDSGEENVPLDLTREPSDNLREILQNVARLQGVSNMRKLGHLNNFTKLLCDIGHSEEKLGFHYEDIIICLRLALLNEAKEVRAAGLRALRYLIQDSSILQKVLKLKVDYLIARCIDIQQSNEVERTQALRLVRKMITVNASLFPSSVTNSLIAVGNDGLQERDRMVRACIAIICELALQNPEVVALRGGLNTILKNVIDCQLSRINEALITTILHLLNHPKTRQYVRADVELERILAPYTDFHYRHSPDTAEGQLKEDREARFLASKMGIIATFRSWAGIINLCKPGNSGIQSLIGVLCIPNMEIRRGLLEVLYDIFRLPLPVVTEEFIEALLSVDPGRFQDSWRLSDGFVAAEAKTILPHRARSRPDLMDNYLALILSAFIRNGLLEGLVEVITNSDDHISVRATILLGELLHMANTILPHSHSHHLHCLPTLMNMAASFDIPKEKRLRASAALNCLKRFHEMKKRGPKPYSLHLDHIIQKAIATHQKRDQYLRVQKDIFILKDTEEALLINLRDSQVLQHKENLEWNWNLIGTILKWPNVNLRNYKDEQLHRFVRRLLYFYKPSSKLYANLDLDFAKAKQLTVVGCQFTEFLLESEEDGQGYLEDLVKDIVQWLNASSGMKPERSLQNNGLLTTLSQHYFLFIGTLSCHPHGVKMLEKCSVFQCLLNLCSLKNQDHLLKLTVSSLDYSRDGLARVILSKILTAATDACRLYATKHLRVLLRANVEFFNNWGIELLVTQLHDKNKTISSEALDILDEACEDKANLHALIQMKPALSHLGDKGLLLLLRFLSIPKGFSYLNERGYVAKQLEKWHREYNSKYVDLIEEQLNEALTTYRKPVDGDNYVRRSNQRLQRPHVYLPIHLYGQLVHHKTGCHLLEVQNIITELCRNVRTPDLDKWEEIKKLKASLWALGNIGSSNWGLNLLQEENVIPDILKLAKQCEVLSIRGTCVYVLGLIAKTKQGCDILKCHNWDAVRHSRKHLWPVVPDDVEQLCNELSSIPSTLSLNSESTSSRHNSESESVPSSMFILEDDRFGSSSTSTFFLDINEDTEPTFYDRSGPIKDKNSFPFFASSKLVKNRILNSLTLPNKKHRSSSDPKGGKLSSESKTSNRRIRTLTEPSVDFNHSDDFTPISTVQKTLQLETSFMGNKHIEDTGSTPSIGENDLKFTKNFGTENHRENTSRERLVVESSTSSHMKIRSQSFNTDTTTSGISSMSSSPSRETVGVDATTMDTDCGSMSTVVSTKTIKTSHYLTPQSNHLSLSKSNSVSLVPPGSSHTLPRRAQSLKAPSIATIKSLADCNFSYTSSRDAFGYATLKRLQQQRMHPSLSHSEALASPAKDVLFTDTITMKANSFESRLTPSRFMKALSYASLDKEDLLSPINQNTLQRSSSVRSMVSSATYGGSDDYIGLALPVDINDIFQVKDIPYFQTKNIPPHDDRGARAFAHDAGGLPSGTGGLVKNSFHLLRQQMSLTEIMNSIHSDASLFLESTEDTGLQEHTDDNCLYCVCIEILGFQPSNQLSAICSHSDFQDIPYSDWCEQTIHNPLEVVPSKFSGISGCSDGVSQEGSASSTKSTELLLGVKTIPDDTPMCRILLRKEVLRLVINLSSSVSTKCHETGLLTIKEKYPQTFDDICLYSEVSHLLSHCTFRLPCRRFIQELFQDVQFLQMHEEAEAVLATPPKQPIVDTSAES
UniProt Q9Y6W5: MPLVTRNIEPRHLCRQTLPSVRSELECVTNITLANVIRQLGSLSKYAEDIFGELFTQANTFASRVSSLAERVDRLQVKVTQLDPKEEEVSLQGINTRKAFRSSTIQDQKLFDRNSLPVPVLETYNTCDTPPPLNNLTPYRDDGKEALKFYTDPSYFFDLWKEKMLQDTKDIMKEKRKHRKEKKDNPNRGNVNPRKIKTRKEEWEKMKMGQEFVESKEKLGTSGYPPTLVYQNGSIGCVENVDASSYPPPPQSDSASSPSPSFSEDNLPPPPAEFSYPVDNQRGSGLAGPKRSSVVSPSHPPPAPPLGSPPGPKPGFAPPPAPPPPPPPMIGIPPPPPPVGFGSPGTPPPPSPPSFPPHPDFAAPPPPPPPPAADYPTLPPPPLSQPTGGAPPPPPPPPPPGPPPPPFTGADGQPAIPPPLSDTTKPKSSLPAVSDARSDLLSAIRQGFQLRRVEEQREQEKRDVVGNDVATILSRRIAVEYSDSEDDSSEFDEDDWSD

T1: Hem1-3xFLAG-V5, wild type (Flag-tagged Hem1) (human) (UniProt P55160)
T1 sequence: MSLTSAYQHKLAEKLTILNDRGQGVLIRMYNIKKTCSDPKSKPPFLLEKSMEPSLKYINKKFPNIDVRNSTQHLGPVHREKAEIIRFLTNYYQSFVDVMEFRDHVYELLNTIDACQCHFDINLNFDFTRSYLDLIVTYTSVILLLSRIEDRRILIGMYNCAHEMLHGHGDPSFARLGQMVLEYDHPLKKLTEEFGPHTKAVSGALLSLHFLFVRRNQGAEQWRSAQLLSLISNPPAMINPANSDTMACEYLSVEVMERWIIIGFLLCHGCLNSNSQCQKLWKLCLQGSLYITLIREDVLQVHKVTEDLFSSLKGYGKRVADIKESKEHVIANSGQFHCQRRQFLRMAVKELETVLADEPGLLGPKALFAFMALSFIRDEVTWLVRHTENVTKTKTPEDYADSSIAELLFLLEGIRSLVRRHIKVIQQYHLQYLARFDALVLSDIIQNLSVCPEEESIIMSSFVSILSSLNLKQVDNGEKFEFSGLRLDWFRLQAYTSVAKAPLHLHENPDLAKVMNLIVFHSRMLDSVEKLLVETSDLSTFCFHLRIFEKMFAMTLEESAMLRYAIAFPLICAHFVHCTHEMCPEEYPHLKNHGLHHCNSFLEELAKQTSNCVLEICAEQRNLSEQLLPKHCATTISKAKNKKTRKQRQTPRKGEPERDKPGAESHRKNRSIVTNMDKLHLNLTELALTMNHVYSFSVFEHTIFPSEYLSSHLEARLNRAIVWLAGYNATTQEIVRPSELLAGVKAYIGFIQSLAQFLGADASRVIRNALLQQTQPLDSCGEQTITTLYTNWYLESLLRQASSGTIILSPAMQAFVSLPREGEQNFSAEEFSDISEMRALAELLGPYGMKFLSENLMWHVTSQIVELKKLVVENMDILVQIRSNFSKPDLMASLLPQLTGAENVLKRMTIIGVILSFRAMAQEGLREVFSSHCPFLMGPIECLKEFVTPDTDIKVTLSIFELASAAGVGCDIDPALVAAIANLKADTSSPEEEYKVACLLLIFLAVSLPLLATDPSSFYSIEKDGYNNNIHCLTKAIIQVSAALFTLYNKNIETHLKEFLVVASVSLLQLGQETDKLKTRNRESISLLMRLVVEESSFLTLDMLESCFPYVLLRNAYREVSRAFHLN

T2: Hem1-3xFLAG-V5 P359L (human) (UniProt P55160)
T2 sequence: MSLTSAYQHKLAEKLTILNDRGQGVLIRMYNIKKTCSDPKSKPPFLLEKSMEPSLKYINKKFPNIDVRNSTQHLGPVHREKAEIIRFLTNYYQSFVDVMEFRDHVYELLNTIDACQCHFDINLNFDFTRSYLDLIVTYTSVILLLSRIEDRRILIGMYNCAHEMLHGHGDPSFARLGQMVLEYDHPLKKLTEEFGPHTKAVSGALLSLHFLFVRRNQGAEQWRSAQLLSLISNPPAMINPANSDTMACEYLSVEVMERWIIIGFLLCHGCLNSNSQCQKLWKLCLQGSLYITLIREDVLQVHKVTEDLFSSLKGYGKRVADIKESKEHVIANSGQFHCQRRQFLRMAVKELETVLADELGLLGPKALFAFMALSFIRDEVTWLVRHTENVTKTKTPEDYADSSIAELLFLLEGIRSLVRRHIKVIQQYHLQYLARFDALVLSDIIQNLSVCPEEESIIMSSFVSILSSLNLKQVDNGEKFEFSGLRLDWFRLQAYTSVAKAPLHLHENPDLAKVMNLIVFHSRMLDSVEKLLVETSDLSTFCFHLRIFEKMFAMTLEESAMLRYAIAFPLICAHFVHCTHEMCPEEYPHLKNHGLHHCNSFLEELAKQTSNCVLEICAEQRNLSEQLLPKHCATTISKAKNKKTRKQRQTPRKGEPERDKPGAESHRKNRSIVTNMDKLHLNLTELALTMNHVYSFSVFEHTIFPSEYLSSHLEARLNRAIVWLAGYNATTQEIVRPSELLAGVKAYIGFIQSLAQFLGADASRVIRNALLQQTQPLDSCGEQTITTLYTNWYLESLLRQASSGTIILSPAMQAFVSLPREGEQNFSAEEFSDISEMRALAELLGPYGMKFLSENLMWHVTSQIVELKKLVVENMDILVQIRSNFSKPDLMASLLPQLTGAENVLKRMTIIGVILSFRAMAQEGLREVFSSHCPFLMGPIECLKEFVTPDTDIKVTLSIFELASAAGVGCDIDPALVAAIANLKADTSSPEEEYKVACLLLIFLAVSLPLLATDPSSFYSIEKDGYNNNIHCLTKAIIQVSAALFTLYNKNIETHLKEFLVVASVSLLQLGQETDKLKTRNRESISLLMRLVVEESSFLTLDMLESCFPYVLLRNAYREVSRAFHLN

T3: Hem1-3xFLAG-V5 M371V (human) (UniProt P55160)
T3 sequence: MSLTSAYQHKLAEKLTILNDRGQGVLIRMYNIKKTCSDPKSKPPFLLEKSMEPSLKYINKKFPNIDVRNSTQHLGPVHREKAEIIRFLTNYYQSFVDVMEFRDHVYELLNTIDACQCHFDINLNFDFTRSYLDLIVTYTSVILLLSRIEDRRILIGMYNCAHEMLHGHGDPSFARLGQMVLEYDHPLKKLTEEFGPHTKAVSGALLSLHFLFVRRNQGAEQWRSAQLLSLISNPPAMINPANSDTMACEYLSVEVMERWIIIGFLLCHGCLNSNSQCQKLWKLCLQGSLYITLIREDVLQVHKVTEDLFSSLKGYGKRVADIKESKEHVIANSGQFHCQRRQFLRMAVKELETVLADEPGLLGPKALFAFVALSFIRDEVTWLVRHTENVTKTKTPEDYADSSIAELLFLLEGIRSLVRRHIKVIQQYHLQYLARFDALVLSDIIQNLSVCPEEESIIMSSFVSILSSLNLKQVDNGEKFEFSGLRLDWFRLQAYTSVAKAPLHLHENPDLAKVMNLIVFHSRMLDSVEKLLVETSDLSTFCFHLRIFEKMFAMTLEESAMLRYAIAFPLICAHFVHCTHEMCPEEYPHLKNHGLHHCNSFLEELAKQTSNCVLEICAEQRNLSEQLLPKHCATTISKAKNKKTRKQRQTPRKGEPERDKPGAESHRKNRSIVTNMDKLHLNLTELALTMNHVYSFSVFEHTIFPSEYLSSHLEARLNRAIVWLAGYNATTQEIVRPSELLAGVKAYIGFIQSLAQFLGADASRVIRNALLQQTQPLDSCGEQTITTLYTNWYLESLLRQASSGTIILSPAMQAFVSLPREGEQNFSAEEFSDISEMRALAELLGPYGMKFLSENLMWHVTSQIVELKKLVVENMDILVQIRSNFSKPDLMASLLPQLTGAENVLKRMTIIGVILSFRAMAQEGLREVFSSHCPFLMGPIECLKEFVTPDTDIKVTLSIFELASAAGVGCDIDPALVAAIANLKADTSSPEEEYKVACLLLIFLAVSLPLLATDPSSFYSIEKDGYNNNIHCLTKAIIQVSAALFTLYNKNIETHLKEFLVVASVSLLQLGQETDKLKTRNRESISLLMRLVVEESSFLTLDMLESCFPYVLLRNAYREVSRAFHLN

T4: Hem1-3xFLAG-V5 V519L (human) (UniProt P55160)
T4 sequence: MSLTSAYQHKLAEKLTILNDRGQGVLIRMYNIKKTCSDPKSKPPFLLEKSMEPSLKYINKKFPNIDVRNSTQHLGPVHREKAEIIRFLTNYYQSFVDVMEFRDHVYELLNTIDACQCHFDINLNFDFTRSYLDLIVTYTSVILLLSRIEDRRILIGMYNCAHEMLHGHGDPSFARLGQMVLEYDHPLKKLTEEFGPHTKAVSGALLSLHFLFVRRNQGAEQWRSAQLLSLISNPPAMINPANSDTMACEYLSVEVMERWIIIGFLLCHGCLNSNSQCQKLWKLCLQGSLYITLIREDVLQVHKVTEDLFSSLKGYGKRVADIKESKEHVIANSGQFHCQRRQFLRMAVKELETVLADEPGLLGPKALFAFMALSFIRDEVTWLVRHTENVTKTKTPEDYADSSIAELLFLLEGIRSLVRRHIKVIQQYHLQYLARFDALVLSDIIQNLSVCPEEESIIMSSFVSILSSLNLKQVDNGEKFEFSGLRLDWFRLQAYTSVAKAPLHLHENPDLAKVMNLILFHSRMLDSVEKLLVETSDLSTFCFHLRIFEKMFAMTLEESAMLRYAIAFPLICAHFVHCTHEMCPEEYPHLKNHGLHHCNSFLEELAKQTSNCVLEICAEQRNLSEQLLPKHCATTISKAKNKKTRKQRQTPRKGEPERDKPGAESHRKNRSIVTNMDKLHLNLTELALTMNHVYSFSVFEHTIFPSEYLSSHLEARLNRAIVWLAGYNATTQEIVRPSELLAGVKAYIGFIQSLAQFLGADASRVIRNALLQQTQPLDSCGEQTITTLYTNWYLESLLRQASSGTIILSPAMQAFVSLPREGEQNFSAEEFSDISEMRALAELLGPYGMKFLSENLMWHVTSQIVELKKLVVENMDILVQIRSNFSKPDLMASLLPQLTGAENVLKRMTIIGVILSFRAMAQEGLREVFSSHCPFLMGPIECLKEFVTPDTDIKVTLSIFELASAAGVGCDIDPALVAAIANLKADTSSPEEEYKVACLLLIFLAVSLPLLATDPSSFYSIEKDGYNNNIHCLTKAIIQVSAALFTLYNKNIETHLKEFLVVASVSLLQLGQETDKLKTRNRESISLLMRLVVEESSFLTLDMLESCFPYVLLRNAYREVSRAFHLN


Tests used:
Assay in all cases: co-IP
[1] = target: T1, Hem1-3xFLAG-V5, wild type (Flag-tagged Hem1) (human)
[2] = target: T2, Hem1-3xFLAG-V5 P359L (human)
[3] = target: T3, Hem1-3xFLAG-V5 M371V (human)
[4] = target: T4, Hem1-3xFLAG-V5 V519L (human)
myc-Rictor = myc-Rictor (UniProt Q6R327)

binding [1]	binding [2]	binding [3]	binding [4]	binding (myc-Rictor)	Molecule
binds	binds	binds	binds	–	WAVE2, endogenous in 293T cells (from UniProt Q9Y6W5 1-498)
–	–	–	–	binds weakly	Hem1-3xFLAG-V5, wild type (Flag-tagged Hem1) (protein, UniProt P55160-1 1-1127) MSLTSAYQHKLAEKLTILNDRGQGVLIRMYNIKKTCSDPKSKPPFLLEKSMEPSLKYINKKFPNIDVRNSTQHLGPVHREKAEIIRFLTNYYQSFVDVMEFRDHVYELLNTIDACQCHFDINLNFDFTRSYLDLIVTYTSVILLLSRIEDRRILIGMYNCAHEMLHGHGDPSFARLGQMVLEYDHPLKKLTEEFGPHTKAVSGALLSLHFLFVRRNQGAEQWRSAQLLSLISNPPAMINPANSDTMACEYLSVEVMERWIIIGFLLCHGCLNSNSQCQKLWKLCLQGSLYITLIREDVLQVHKVTEDLFSSLKGYGKRVADIKESKEHVIANSGQFHCQRRQFLRMAVKELETVLADEPGLLGPKALFAFMALSFIRDEVTWLVRHTENVTKTKTPEDYADSSIAELLFLLEGIRSLVRRHIKVIQQYHLQYLARFDALVLSDIIQNLSVCPEEESIIMSSFVSILSSLNLKQVDNGEKFEFSGLRLDWFRLQAYTSVAKAPLHLHENPDLAKVMNLIVFHSRMLDSVEKLLVETSDLSTFCFHLRIFEKMFAMTLEESAMLRYAIAFPLICAHFVHCTHEMCPEEYPHLKNHGLHHCNSFLEELAKQTSNCVLEICAEQRNLSEQLLPKHCATTISKAKNKKTRKQRQTPRKGEPERDKPGAESHRKNRSIVTNMDKLHLNLTELALTMNHVYSFSVFEHTIFPSEYLSSHLEARLNRAIVWLAGYNATTQEIVRPSELLAGVKAYIGFIQSLAQFLGADASRVIRNALLQQTQPLDSCGEQTITTLYTNWYLESLLRQASSGTIILSPAMQAFVSLPREGEQNFSAEEFSDISEMRALAELLGPYGMKFLSENLMWHVTSQIVELKKLVVENMDILVQIRSNFSKPDLMASLLPQLTGAENVLKRMTIIGVILSFRAMAQEGLREVFSSHCPFLMGPIECLKEFVTPDTDIKVTLSIFELASAAGVGCDIDPALVAAIANLKADTSSPEEEYKVACLLLIFLAVSLPLLATDPSSFYSIEKDGYNNNIHCLTKAIIQVSAALFTLYNKNIETHLKEFLVVASVSLLQLGQETDKLKTRNRESISLLMRLVVEESSFLTLDMLESCFPYVLLRNAYREVSRAFHLN
